Assay results from publication PMC9106305.
These are yes or no findings as the source states them, for the method shown. Binding seen in cells or lysates may run through a third protein. Some binding calls cover weakened binding; strength is not graded here.

Protein sequences, listed by entry. Tags and fused reporters are not part of them.
UniProt P40763: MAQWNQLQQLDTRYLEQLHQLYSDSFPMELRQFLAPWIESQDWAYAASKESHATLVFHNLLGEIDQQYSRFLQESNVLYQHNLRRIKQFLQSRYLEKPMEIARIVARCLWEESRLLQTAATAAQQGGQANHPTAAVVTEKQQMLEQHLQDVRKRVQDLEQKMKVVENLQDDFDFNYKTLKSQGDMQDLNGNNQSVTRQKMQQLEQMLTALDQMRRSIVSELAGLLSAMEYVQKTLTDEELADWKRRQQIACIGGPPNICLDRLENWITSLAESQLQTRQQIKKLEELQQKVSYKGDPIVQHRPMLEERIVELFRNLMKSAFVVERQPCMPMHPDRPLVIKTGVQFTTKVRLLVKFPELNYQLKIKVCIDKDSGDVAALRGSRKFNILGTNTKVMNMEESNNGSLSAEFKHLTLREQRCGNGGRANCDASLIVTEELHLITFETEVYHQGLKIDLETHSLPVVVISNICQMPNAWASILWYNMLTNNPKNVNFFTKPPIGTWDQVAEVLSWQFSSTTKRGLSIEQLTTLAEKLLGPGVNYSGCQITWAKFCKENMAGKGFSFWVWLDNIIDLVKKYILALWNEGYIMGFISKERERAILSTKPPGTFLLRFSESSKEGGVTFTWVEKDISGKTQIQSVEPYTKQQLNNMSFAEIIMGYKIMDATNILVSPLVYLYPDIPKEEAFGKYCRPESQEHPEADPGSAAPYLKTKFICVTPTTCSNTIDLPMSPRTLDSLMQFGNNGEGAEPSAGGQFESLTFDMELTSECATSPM

Biological target: T1, BLCAP (human (endogenous in N33 and N9 primary GBM cells)) (UniProt P62952)
T1 sequence: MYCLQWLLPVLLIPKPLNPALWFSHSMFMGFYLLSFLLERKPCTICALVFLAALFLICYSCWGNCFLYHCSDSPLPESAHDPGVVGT
Assay: co-IP; cells lysed in IP lysis buffer; 5 ug anti-BLCAP (or anti-STAT3) antibody and 40 ul protein-A/G agarose beads with total lysates of N33 and N9 cells, 4°C overnight; immunoblot for BLCAP, STAT3 and p-STAT3; groups with PRADX overexpression, EZH2 or BLCAP knockdown

Substance: STAT3 (from UniProt P40763 1-770)
- binding: binds
